# Library screen at single concentrations

From ChEMBL document CHEMBL3988442, “University of Dundee, Small-Polar-MMV Screening Library” (2021).

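Whole-parasite assay of Trypanosoma brucei over 72 hours; the read-out is not stated. Compounds at 30 µM. The record gives no direction; compounds that gave an IC50 in retests scored well above the rest, so higher reads as stronger inhibition. Values scatter widely below zero; nearly all retest evidence comes from the higher of the two concentrations used. Size under these conditions: about 64,000 compounds, about 940 of them at 50% or above in at least one test.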

The filed quantity is “Percent Effect” (%).
The controls that fix the scale are not given in the record; negative values are as filed.
Compounds were drawn at random from those tested, without regard to their results.

| Compound | effect |
|---|---|
| `Cc1noc(CN(Cc2cccs2)C2CC2)n1` | -44.87 |
| `[H][C@@]12CCN(Cc3cccc(C)n3)C[C@]1(C(=O)N1CCOCC1)CCO2` | -44 |
| `CN(C)CCNc1ccc(-c2nc(COc3ccccc3)no2)cn1` | 27.75 |
| `Cc1cccnc1N1CC2(CCN(Cc3cnn(C)c3)C2)C1.O=C(O)C(F)(F)F.O=C(O)C(F)(F)F` | -0.2179 |
| `O=C(O)C(F)(F)F.O=S1(=O)NCC2(CCNCC2)COc2ccccc21` | -65.08 |
| `[H][C@]12CC[C@]([H])(CN(S(=O)(=O)N(C)C)C1)N(C(=O)Cn1ccnc1CC)C2` | -16.97 |
| `CCOc1cc(CNc2nnn(C)n2)ccc1OCc1ccc(Cl)cc1` | 13.85 |
| `Cc1cccc(C(=O)N2CCCC2c2c(C)n[nH]c2C)c1` (stereo unspecified) | -11.72 |
| `CS(=O)(=O)NCc1noc2c1CN(C(=O)C1CC1)CC2` | -5.726 |
| `C[C@@H]1C[C@H](C(F)(F)F)n2nc(C3CCN(S(=O)(=O)N(C)C)CC3)cc2N1` | 1.329 |
| `Cc1nc(C2CCCN2Cc2cc(=O)n(C)c(=O)n2C)no1` (stereo unspecified) | -19.86 |
| `Cc1nn(CC(=O)Nc2ccc(F)cc2)c(N)c1C#N` | -21.44 |
| `Cc1ccc(N2CCCC(N3CCC(N(C)C)CC3)C2=O)cc1` (stereo unspecified) | -10.1 |
| `COc1ncccc1C(=O)Nc1nc2c(s1)CN(S(=O)(=O)C1CC1)CC2` | -51.92 |
| `O=C(NC1CC1)N1CCOCC2(CCN(Cc3cccs3)C2)C1.O=C(O)C(F)(F)F` (stereo unspecified) | -9.319 |
| `CSc1nccc(N2CCC3(CCCN(CCc4ccccc4)C3)C2)n1` (stereo unspecified) | 100.6 |
| `Cc1ccc(CN2CCOC3(COCCN(Cc4ccncc4)C3)C2)o1.O=C(O)C(F)(F)F.O=C(O)C(F)(F)F.O=C(O)C(F)(F)F` (stereo unspecified) | -22.21 |
| `[H][C@@]12CCN(S(=O)(=O)CC)[C@]1([H])CCC(=O)N2CCOC` | -45.33 |
| `CC(C(=O)NCc1ccc(N2CCNC(=O)C2)cc1)c1cccs1` (stereo unspecified) | -9.193 |
| `Cc1cc(C(=O)N2CC(O)CO2)c2cccc(C)c2n1` (stereo unspecified) | 6.657 |
| `CS(=O)(=O)N1CCOCC2(CN(Cc3ccc(F)cc3)CCO2)C1.O=C(O)C(F)(F)F` (stereo unspecified) | -16.28 |
| `CCn1ncc2c1C(COC)CN(Cc1ccsc1)C2` (stereo unspecified) | -26.86 |
| `COCC(=O)N1CCC2(CC1)CC(COC)N(c1ncccn1)C2.O=C(O)C(F)(F)F` (stereo unspecified) | -13.16 |
| `COc1ccc(-c2n[nH]cc2CN(C)Cc2nonc2C)c(F)c1` | 2.961 |
| `Cc1cnn(CC2CN(CC(=O)N(C)c3nccs3)CCO2)c1` (stereo unspecified) | -2.861 |
| `[H][C@]12CN(C(=O)OCCOC)CCN1C[C@@H](CO)[C@@H]2c1ccccc1` | -25.56 |
| `Cc1ccc(C2COCCN2C(=O)c2ccc(C)s2)o1` (stereo unspecified) | -12.81 |
| `CN(Cc1ccco1)Cc1cnc2n1CCN(c1ccccn1)CC2.O=C(O)C(F)(F)F.O=C(O)C(F)(F)F` | -46.37 |
| `CCN1CC(C(=O)NCc2ccc3c(c2)nc(C)n3C)CCC1=O` (stereo unspecified) | 2.159 |
| `CN(CC(N)=O)C(=O)c1csc(Br)c1` | -5.052 |
| `Cc1noc([C@@H]2C[C@H](NC(=O)C3CCCCC3)CN2C)n1` | -11.54 |
| `COc1cc(S(=O)(=O)N2CCc3cc(Br)ccc32)cc(C(=O)O)c1OC` | 12.88 |
| `O=C(NCCCc1nc(=O)[nH][nH]1)Nc1ccc(Cl)cc1` | -25.57 |
| `COc1ccc(C(=O)N2CCOCC2c2ccc(C)o2)cc1` (stereo unspecified) | -15.69 |
| `COc1ccc(CCN2CCCC2Cn2nc(C)nc2C)cc1` (stereo unspecified) | -42.71 |
| `CC(CNC(=O)N1CCN(Cc2ccon2)CC1)Cc1cccs1` (stereo unspecified) | -29.34 |
| `CN(C)CCCNC(=O)c1ccccc1NC(=O)c1cc(Cl)ccc1Cl` | 16.65 |
| `Cc1nc2ccccc2c(=O)n1CCC(=O)N1CCNC(=O)C1` | -25.27 |
| `O=c1c2ccc(C(F)(F)F)cc2ncn1CCCN1CCCCC1CO` (stereo unspecified) | -72.68 |
| `O=C1COc2ccc(S(=O)(=O)NCCC3=CCCCC3)cc2N1` | -20.45 |
| `COc1ccc(-c2nnc(CN3CCNC(=O)C3)o2)cc1` | -17.24 |
| `O=C(c1cnc(O)cn1)N1CCCC1c1nc2cc(F)ccc2[nH]1` (stereo unspecified) | -21.62 |
| `CCOCCC(=O)N1CCCC(c2cc(C(F)(F)F)[nH]n2)C1` (stereo unspecified) | 3.226 |
| `[H][C@@]12CCCO[C@]1([H])[C@H](NC(=O)c1cscn1)CN2c1ncccn1` | 0.2867 |
| `Cc1[nH]nc(-c2ccc(F)cc2)c1CC(=O)NCC1CCOCC1` | 7.533 |
| `COc1ccc(-c2nc(CC(=O)N(C)CCC#N)cs2)cc1OC` | -30.8 |
| `CC(C)(C(=O)NCCCC(N)=O)c1cccc(Br)c1` | 1.837 |
| `Cc1nc(C)c2c(n1)CCN(C(=O)C1(C#N)CC1)CC2` | -7.805 |
| `O=C(NCCOc1ccc(Cl)cn1)Nc1cccnc1` | -27.53 |
| `Cc1nc2cc(-c3nccn3C)nn2c(N2CCC(O)CC2)c1C.Cl` | 17.99 |
| `CC(C)C(=O)N1CCC(n2nc(-c3ccco3)ccc2=O)CC1` | -15.18 |
| `CCOc1ccc(CN2CCC3(CC2)CNC(=O)C3)cn1` | -2.061 |
| `CCSc1nnc(N2CCN(c3ccccc3)CC2)s1` | -33.14 |
| `CCN(CC)CC(=O)N1CCN(CCc2ccncc2)CC1` | -44.62 |
| `Cc1ccc(C(CNC(=O)c2cc(=O)c3ccccc3[nH]2)N(C)C)cc1` (stereo unspecified) | -54.89 |
| `Cc1cc(N2CCC(O)(CN(C)C)C2)c2cc3c(cc2n1)OCO3` (stereo unspecified) | 101.2 |
| `[H][C@@]12COC[C@]1(COc1cccnc1)CN(C(=O)c1ncccn1)C2` | -54.16 |
| `Cc1nc(C2CCCN2C(=O)CCCOc2ccccc2C)no1` (stereo unspecified) | 1.085 |
| `Cc1cc(CN2C[C@@H](C)[C@@]3(CCN(CC(=O)N(C)C)C3=O)C2)oc1C.O=C(O)C(F)(F)F` | -75.4 |
| `[H][C@@]12C[C@@H](c3noc(C)n3)O[C@]1([H])CN(Cc1scnc1C)C2` | -45.5 |
| `O=S(=O)(C1CC1)N1CCc2ncnc(N3CCOCC3)c2CC1` | 4.177 |
| `CC(=O)c1cc(CN2C[C@@H](CN3CCC(O)CC3)[C@@H](CO)C2)n(C)c1` | -17.18 |
| `O=C(NCC(F)(F)F)c1nnn(-c2ccccc2)c1C(F)(F)F` | -25.31 |
| `CC(C)c1nc(S(=O)(=O)N(C)c2cc(F)ccc2F)c[nH]1` | -19.01 |
| `COc1ccccc1N1CCC(CNS(=O)(=O)c2cccs2)C1` (stereo unspecified) | -81.99 |
| `Cn1cc(C2=NOC(C(=O)NC3(c4ccccc4)CCCC3)C2)cn1` (stereo unspecified) | 4.403 |
| `COCCNC(=O)C1CN(Cc2nccs2)Cc2ccnn2C1.O=C(O)C(F)(F)F.O=C(O)C(F)(F)F` (stereo unspecified) | -7.247 |
| `CC(=O)NS(=O)(=O)c1ccc(F)c(C(F)(F)F)c1` | -11.02 |
| `Cc1cccc(N(CC(=O)N2CCCCC2)C(=O)C2CCCO2)c1` (stereo unspecified) | -45.44 |
| `CCC(NC(=O)c1nn(C)cc1C(=O)O)c1ccccc1` (stereo unspecified) | -11.58 |
| `Cc1ccc(C(=O)Nc2ccc(N3CCCC3)cn2)cc1C` | -31.35 |
| `CN(CC1CCCCO1)C(=O)c1ccnc(OC2CCC2)c1` (stereo unspecified) | -2.766 |
| `O=C(NCc1nnc2n1CCC2)N(Cc1ccc(F)cc1)C1CC1` | -32.7 |
| `CN(C)C1CCCN(Cc2cccc(Cn3cccn3)c2)CC1` (stereo unspecified) | -18.87 |
| `Cc1cccc(C(=O)N2CCCN(CCCSCC#N)CC2)c1` | -25.24 |
| `O=C(c1cncs1)N1CCOCC(Cc2ccccn2)C1` (stereo unspecified) | 13.47 |
| `O=C(NCc1csc(Br)c1)c1ccc(=O)[nH]n1` | -7.717 |
| `Cc1cc2nc(C3CCCCC3)c(-c3ccnc(NCCO)n3)cn2n1` | -10.35 |
| `COc1ccc(CNC(=O)c2ccoc2CN2CCNC(=O)C2)cc1` | -16.36 |
| `[H][C@@]12COC[C@]1([H])[C@@H](OCC)CN2C(=O)c1ccc2c(c1)OCO2` | -73.35 |
| `O=C(CCC1CCCN(C(=O)CCN2CCCCO2)C1)N1CCCC1` (stereo unspecified) | 3.734 |